Here are results for one molecule from article PMC5325215.

What all share (assay): co-IP; COS-7 cells co-transfected with FLAG-tagged FILIP or deletion mutants and EYFP-tagged FILIP; immunoprecipitation with an anti-FLAG antibody
Assay [1] has as its target T1, FILIP d248-442 (3 x FLAG tagged) (rat) (UniProt Q8K4T4).
T1 sequence: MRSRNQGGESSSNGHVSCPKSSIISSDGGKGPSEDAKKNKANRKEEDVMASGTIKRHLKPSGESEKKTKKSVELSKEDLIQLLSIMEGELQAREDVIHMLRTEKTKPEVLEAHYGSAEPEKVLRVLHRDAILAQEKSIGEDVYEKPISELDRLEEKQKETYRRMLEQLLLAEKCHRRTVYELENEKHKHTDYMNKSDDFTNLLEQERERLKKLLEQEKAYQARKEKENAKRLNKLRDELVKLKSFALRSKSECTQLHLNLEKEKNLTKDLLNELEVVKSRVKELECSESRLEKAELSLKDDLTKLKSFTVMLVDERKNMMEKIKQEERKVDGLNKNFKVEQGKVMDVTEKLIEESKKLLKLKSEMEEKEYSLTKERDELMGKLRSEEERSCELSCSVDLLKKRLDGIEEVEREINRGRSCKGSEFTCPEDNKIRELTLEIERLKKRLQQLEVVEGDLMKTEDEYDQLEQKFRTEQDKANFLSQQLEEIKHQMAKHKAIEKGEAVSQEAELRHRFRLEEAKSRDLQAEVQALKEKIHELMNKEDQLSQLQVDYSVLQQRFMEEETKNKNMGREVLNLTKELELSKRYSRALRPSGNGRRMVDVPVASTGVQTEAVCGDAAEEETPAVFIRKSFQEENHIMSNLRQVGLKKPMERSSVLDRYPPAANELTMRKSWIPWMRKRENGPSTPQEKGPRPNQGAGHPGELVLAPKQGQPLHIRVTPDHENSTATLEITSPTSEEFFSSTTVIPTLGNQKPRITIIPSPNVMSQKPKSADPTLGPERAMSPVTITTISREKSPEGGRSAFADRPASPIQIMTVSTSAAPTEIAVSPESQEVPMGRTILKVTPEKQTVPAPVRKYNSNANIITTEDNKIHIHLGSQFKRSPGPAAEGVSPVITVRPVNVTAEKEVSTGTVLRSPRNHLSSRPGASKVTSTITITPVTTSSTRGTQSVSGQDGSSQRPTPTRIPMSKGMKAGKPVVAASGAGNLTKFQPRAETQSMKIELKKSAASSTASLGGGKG

In assay [2] the target is T2, FILIP d248-685 (3 x FLAG tagged) (rat) (UniProt Q8K4T4).
T2 sequence: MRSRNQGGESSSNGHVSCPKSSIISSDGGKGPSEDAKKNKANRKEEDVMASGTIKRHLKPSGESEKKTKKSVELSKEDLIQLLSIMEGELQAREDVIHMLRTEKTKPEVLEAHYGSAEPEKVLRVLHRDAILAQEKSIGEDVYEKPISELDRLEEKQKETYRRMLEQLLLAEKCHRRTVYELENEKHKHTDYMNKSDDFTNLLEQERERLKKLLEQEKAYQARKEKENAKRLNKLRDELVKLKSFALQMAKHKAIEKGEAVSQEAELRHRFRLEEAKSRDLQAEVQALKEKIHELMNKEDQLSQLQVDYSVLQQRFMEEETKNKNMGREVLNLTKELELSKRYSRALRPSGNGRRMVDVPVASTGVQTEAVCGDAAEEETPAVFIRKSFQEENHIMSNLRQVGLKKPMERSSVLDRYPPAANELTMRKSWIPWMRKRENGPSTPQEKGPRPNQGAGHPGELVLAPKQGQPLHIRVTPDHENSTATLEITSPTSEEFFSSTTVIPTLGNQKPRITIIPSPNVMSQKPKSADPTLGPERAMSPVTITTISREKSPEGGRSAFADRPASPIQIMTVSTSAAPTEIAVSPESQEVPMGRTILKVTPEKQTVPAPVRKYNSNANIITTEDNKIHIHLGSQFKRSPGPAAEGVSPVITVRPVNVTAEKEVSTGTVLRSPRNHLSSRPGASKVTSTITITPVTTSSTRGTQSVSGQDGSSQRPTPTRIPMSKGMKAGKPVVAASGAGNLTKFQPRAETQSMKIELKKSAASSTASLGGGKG

For assay [3], the target named is T3, 3 x FLAG tagged full-length FILIP (rat L-FILIP) (rat) (UniProt Q8K4T4).
T3 sequence: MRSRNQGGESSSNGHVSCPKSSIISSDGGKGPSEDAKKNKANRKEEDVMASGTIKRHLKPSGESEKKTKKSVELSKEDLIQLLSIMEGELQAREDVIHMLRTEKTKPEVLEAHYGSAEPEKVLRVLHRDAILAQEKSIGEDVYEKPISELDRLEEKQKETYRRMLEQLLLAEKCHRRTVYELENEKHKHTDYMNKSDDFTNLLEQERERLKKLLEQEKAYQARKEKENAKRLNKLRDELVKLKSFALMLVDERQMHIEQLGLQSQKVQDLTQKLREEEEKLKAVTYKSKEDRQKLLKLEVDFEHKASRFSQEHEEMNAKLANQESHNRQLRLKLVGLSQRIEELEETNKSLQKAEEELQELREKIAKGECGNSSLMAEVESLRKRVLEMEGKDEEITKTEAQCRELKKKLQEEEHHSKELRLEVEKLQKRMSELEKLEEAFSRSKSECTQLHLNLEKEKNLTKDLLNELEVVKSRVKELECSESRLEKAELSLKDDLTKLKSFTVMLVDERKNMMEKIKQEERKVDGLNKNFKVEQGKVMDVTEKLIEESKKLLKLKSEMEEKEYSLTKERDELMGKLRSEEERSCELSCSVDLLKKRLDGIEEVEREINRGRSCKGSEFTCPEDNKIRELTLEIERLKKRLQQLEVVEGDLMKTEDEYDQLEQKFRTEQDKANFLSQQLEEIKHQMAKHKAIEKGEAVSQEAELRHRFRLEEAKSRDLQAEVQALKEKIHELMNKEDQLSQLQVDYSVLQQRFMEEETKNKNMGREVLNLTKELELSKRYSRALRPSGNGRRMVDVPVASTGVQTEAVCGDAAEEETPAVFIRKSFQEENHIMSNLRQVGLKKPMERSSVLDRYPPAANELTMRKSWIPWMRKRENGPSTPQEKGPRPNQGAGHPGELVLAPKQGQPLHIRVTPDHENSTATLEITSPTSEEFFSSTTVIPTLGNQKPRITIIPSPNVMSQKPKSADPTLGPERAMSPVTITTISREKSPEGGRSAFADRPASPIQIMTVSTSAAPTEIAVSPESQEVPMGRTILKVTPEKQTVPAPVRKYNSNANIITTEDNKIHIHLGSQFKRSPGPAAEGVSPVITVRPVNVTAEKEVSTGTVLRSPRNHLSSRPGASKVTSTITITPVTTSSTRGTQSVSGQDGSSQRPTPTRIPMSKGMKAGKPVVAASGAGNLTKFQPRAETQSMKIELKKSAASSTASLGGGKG

Assay [4] deals with T4, FILIP d872-1111 (3 x FLAG tagged) (rat) (UniProt Q8K4T4).
T4 sequence: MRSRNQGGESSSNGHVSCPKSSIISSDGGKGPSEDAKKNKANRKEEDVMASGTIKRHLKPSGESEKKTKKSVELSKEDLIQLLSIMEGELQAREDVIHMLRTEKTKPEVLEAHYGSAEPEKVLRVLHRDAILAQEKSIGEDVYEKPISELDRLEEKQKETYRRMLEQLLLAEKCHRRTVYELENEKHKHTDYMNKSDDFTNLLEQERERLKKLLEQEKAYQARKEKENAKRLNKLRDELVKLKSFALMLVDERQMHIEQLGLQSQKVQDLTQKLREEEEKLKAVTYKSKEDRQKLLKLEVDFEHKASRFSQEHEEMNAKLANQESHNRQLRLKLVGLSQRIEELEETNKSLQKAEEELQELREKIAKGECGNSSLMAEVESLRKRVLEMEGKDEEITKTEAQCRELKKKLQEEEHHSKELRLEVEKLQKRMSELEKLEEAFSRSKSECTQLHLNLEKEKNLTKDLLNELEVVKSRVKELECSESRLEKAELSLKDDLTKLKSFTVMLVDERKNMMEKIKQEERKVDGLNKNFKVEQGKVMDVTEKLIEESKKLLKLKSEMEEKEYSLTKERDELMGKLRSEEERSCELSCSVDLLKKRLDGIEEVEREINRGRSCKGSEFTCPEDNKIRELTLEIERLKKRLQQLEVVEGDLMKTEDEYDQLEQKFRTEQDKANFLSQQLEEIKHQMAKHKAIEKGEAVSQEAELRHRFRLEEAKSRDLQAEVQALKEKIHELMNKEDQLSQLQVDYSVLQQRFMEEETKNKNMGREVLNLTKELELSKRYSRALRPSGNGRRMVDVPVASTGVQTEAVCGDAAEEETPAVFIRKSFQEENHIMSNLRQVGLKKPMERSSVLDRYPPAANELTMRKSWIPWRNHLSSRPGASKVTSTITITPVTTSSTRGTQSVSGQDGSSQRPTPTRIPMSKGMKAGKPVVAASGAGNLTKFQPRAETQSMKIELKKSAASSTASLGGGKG

No constants are given. Whether binding was seen depends on the method and setting. In cells and extracts the contact can be indirect. Some binding calls cover weakened binding; strength is not graded here. Where a sequence is shown, tags or fusion partners need not be part of it.

B1: EYFP-tagged FILIP (rat L-FILIP, full length) (protein, UniProt Q8K4T4-1 1-1212)
chain: T3 sequence
For B1, the binding entry in assay [1] is on record as “binds weakly”; in assay [2], “no binding”; in assay [3], “binds”; in assay [4] it was “binds weakly”.
